Results are given in words; binding and its absence hold for the method and conditions named. Binding seen in cells or lysates may run through a third protein. Here binding means that the protein was enriched with, or labelled near, the bait; the list need not be complete.
Molecular target: HA–G3BP1 (human) (UniProt Q13283)
Test: affinity purification with mass spectrometry; SILAC-labelled HEK293T cells transfected with HA-G3BP1, treated with ICA (heavy) or DMSO (light); lysate on anti-HA magnetic beads at 4 °C overnight; SDS-PAGE, LC-MS/MS

By UniProt entry, the sequences of proteins in these tests, tags left out.
UniProt Q13283: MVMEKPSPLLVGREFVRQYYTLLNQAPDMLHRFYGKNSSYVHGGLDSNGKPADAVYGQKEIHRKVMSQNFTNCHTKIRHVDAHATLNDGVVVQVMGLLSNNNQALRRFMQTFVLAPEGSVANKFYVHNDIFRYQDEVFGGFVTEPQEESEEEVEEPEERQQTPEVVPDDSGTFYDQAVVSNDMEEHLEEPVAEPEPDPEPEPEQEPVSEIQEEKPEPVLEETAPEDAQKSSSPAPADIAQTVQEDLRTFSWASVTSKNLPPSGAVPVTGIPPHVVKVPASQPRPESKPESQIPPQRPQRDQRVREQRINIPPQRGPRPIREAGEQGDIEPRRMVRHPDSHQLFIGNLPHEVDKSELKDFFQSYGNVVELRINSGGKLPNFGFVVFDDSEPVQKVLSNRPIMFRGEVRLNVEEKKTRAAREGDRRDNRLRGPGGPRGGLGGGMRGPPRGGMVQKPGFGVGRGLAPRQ
UniProt P38919: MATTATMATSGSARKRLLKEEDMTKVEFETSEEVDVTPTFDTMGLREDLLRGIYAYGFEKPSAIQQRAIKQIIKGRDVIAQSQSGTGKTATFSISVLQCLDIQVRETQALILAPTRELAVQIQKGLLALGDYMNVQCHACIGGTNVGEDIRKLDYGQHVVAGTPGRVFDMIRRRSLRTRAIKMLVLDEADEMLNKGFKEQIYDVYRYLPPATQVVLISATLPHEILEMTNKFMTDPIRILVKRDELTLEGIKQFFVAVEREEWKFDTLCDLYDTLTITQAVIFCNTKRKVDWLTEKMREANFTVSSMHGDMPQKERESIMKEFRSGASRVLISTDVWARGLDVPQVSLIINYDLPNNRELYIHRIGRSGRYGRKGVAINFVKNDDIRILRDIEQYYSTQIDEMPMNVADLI
UniProt O00425: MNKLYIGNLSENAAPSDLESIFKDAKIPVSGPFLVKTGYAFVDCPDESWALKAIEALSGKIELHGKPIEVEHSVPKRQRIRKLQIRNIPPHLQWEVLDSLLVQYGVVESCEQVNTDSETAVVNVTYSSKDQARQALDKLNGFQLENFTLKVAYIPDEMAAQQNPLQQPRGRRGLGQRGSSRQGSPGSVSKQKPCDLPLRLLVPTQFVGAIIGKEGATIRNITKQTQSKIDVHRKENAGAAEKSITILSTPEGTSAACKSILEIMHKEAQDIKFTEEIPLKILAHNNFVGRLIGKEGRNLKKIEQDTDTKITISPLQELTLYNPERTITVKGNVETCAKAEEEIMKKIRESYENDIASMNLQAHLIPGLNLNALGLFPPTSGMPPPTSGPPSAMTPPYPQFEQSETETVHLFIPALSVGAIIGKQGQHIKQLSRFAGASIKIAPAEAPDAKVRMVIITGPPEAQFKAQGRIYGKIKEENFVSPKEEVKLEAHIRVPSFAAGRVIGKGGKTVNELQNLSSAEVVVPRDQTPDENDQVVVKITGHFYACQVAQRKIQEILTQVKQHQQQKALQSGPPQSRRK

binding	Substance
binds	eukaryotic translation initiation factor 4A3 (from UniProt P38919 1-411)
binds	insulin-like growth factor 2 mRNA-binding protein 3 (from UniProt O00425 1-579)

From article PMC12866838, “Targeting G3BP1 Condensate Topology Promotes Stress Granule Assembly via m^6A‐IGF2BP1 for Ischemic Stroke Rescue” (Advanced Science, 2025)
